Data taken from patent US9994515B2, “Aryl naphthyl methanone oxime(s) and process for preparation thereof” (Council of Scientific & Industrial Research, priority 2013, dated 2018).
pIC50: −log10 of the molar value. Where two headings read alike, the source gives them in different places.

Columns and labels:
[1] = system: HL60; test: MTT cytotoxicity assay in HL-60 cells; format: cell-based; details: Homo sapiens
[2] = system: K562; test: MTT cytotoxicity assay in K562 cells; format: cell-based; details: Homo sapiens

With `Cc1ccc(NC(=O)c2ccc(CN3CCN(C)CC3)cc2)cc1Nc1nccc(-c2cccnc2)n1` [Imatinib, reference compound] as the compound, how does the pIC50 ([1]; HL-60, 48 h, Table 3, MTT, 48 h, 10 point dose response, read-out: IC 50 HL 60) read?
Its pIC50 is 5.02.

What about the pIC50 ([1]; HL-60, Table 2) of the same compound?
Its pIC50 is 5.02.

What about the pIC50 ([2]; K562, 48 h, Table 3, MTT, 48 h, 10 point dose response, read-out: IC 50 K562) of the same compound?
The pIC50 was 5.29.

What about the pIC50 ([2]; K562, Table 2) of the same compound?
Its pIC50 is 5.12.
